# Source: PubChem BioAssay AID743266 (National Center for Advancing Translational Sciences (NCATS), 2014)
# By UniProt entry, the sequences of proteins in these tests, tags left out. Where a name states a change or a piece, a line headed by the entry shows the natural chain unless it says otherwise.
# UniProt Q03431: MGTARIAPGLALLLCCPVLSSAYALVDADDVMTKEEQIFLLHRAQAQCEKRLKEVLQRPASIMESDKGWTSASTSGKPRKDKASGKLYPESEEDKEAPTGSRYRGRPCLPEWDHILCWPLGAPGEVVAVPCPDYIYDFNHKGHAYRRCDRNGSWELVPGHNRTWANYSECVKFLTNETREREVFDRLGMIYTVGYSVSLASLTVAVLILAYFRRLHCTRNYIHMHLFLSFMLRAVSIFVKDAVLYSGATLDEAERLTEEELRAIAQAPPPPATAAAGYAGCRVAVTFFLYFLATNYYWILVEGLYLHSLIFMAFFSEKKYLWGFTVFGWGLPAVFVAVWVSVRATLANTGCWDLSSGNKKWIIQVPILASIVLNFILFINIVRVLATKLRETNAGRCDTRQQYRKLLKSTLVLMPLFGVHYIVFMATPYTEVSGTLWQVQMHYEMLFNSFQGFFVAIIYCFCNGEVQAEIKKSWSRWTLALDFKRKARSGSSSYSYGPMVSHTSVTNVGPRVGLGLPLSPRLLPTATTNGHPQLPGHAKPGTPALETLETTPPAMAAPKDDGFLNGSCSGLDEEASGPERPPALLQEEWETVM
# Screen size: about 410,000 compounds; about 310 (0.076%) were called active. The shares of active, inactive and inconclusive entries below differ from those in the screen. The call rests on the fitted dose curve; in most records, active means well fitted activation curve with a large enough effect; inconclusive means small, poorly fitted or top-dose-only effect, or another doubt; inactive means no such curve, though single readings can be large or run the other way. Where the call is inconclusive, the potency comes from a doubtful curve fit.
# Molecular target: Parathyroid hormone/parathyroid hormone-related peptide receptor (Homo sapiens) (UniProt Q03431)
# Experiment: qHTS for PTHR1 Agonists: Primary Screen; further: nearly all actives have a fitted effect of over 55% in size
# Settings: HEK293 GP2 PTHR1 cells, GloSensor cAMP luminescence, 1 h; activation: at 115 µM (top of the series) unless noted; series mostly up to 115 µM
# Procedure, shortened: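 HEK-293-derived GP2 cells expressing PTHR1 and a GloSensor cAMP reporter, 3,000/well, plated overnight, given luciferin plus IBMX (each 0.5 mM as added) for 1 h at 37 °C, then compound for 1 h at 37 °C. Luminescence was read after 15 min at room temperature.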
# Potency means the concentration at half of the fitted maximal effect.
Structure (SMILES),Potency,activation
COc1cc(CNCCc2ccc(S(N)(=O)=O)cc2)ccc1OCc1ccc(Cl)cc1,"inconclusive: 17.8 µM [activator, partial curve, poor fit]",
CCc1ccc(NC(=O)CSc2cn(CC(=O)N3CCCC3)c3ccccc23)cc1,,inconclusive: -56.2% [activator]
NC(=O)N/N=C/c1coc2ccc(O)cc2c1=O,"inconclusive: 126 µM [activator, single point]",
COc1ccc(NC(=O)CN(C)C(=O)c2ccc3ccccc3c2)cc1,,inconclusive: 38.7% [activator]
CCC(=O)c1ccc(OCC(=O)OCC(=O)N2CCc3ccccc3C2)cc1,"inconclusive: 158 µM [activator, single point]",
COCCNC(=O)C(C)OC(=O)c1cc2occc2n1C (stereo not given),"inconclusive: 35.5 µM [activator, single point]",
Cc1nc(-c2ccc(O)c(O)c2)cs1,inactive,
COc1cc2c(cc1NC(=O)CSc1ccc(C)cc1)oc1ccccc12,"inconclusive: 7.94 µM [activator, partial curve, poor fit]",
COc1ccc(-n2cc(CNCCc3ncc(C)[nH]3)c(-c3ccccc3Cl)n2)cc1,inactive,
O=C(NC1CCCCCC1)c1ccc2c(c1)sc1nc(-c3ccc(F)cc3)cn12,"inconclusive: 50.1 µM [activator, partial curve, poor fit]",
COc1ccccc1NC(=O)Cn1c(=O)n(Cc2ccccc2)c(=O)c2sc3ccccc3c21,"inconclusive: 2.82 µM [activator, full curve, poor fit]",
CCCc1nc2sc3c(N4CCC(C)CC4)ncnc3c2c2c1CCCC2,"inconclusive: 141 µM [activator, single point]",
CCN(CC1COc2ccccc2O1)C(=O)CN1C(=O)NC(C)(c2ccccc2)C1=O (stereo not given),"inconclusive: 17.8 µM [activator, partial curve]",
Cc1ccc(-c2ccc(/C=N/N=C3/NC(=O)C(CC(=O)O)S3)o2)c([N+](=O)[O-])c1 (stereo not given),inactive,
COc1ccccc1/C=C/C=C(\C#N)C(=O)NC(C)c1ccccc1 (stereo not given),inactive,
CC(=O)c1ccc(NC(=O)C[n+]2ccc(N(C)C)cc2)cc1,,inconclusive: 45.2% [activator]
CC(C)OC(=O)c1cccc(-c2ccc(C=O)o2)c1,inactive,
CC1CCCN(C(=O)COC(=O)Cc2c[nH]c3ccccc23)C1 (stereo not given),"inconclusive: 56.2 µM [activator, single point]",
Cc1cc(C(=O)Nc2ccccc2C)on1,"inconclusive: 12.6 µM [activator, partial curve]",
CCNC(=S)N/N=C/c1cc(C)n(-c2ccc(Cl)cc2)c1C,inactive,
Cc1ccc(S(=O)(=O)N(CC(=O)N2CCOCC2)c2ccccc2F)cc1,inactive,
CCn1cc(C(=O)O)c(=O)c2cnc(N3CCN(C(=S)Nc4ccc(F)cc4)CC3)nc21,,inconclusive: 113% [activator]
Cc1ccc(N)cc1CN1CCCC1=O,"inconclusive: 10 µM [activator, partial curve, poor fit]",

# Not a retest: an excerpt of the list.
Structure (SMILES),Potency,activation
COc1cc2c(cc1NC(=O)CSc1ccc(C)cc1)oc1ccccc12,"inconclusive: 7.94 µM [activator, partial curve, poor fit]",
COc1ccc(-n2cc(CNCCc3ncc(C)[nH]3)c(-c3ccccc3Cl)n2)cc1,inactive,

# (further entries)

Structure (SMILES),Potency,activation
COc1cc2c(N3CCOCC3)cc(O)c(CC(=O)Nc3ccccc3)c2cc1OC,"inconclusive: 31.6 µM [activator, single point]",
Cc1ccc(C(=O)Nc2cccc(NC(=O)c3ccc(C)o3)n2)o1,inactive,
CN(C/C=C/c1ccccc1)Cc1cccc2ccccc12,inactive,
CCOC(=O)C1CCN(C(=O)Nc2ccc(OC(F)(F)F)cc2)CC1,inactive,
CCCC(=O)Nc1nnc(SCC(=O)NCc2ccc3c(c2)OCO3)s1,,inconclusive: 75.1% [activator]
O=C(c1ccccc1)c1nc2ccccc2n(CCCn2c(=O)c(C(=O)c3ccccc3)nc3ccccc32)c1=O,"inconclusive: 39.8 µM [activator, single point]",
CCN(CC)CCCNC(=O)CN1N=C(c2ccc(OC)cc2)CCC1=O,,inconclusive: 30.6% [activator]
Cc1c(CC(=O)NCCCC(=O)O)c(=O)oc2cc3occ(-c4ccccc4)c3cc12,"inconclusive: 15.8 µM [activator, partial curve, poor fit]",
CCCCCCn1cc(CN2CC(N3CCN(CCN(C)C)CC3)CS2(=O)=O)nn1 (stereo not given),inactive,
O=S(=O)(N/N=C/c1c(F)cccc1Cl)c1ccccc1,"inconclusive: 2.82 µM [activator, full curve, poor fit]",
C#CCOCCOCCOCCNc1nc(N2CCN(C(=O)CCCCCCCCCCNC(=O)[C@H](CCCCN)n3cc(CCCC(=O)O)nn3)CC2)nc(N2CCN(C(=O)CCCCCCCCCCNC(=O)[C@H](CCCCN)n3cc(CCCC(=O)O)nn3)CC2)n1,"inconclusive: 79.4 µM [activator, partial curve, poor fit]",
CC(=O)NCCc1ccc(S(=O)(=O)Nc2ccc(C)c(S(=O)(=O)N3CCOCC3)c2)cc1,"inconclusive: 112 µM [activator, partial curve, poor fit]",
O=C(/C=C\c1ccccc1)NC1CC(=O)N(c2ccccc2)C1 (stereo not given),,inconclusive: 43% [activator]
CCN(CC)CCN(C)Cc1ccc(Br)cc1,inactive,
COc1cccc(-n2nnc(-c3nc(-c4ccccc4F)no3)c2C)c1,inactive,
CC(C)c1ccc(NC2CCCN(C(=O)CC3CCCC3)C2)cc1 (stereo not given),inactive,
Cc1oc2c(CN3CCCCC3C)c(O)ccc2c(=O)c1-c1ccccc1 (stereo not given),,inconclusive: 31.7% [activator]
CCOC(=O)CSc1nnc2n(C3CCCCC3)c(=O)c3c4c(sc3n12)CCCC4,"inconclusive: 2.82 µM [activator, single point]",
CC(=O)Nc1nc2ccccc2n1Cc1ccc(Cl)cc1,inactive,
Cc1cccc(OCCOCCN2CCNCC2)c1C,"inconclusive: 31.6 µM [activator, partial curve, poor fit]",
Cn1c(CSc2nc3ccc(Br)cc3[nH]2)nc2ccccc21,"inconclusive: 31.6 µM [activator, partial curve, poor fit]",
COc1ccc(CCN(C)C(=O)CSc2ncnc3sccc23)cc1OC,inactive,
